Results are given in words; binding and its absence hold for the method and conditions named.
Assays:
[1] = molecular target: PTPN3-Bidomain (PDZ and PTP domains connected by the linker) (human) (UniProt P26045); assay: SEC-SAXS; online HPLC (Superdex 75 increase 5 x 150) at 25°C into the SAXS cell, SWING beamline; free Bidomain; both purified
[2] = molecular target: PTPN3-Bidomain (PDZ and PTP domains connected by the linker) (human) (UniProt P26045); assay: AUC; sedimentation velocity, 20°C, 14 μM protein, 42,000 rpm, 17 h; continuous c(S) model; both purified

The chains behind the UniProt entries cited, without tags or fusion partners. Where a name states a change or a piece, a line headed by the entry shows the natural chain unless it says otherwise. Residues count along the entry.
UniProt P26045, residues 488-913: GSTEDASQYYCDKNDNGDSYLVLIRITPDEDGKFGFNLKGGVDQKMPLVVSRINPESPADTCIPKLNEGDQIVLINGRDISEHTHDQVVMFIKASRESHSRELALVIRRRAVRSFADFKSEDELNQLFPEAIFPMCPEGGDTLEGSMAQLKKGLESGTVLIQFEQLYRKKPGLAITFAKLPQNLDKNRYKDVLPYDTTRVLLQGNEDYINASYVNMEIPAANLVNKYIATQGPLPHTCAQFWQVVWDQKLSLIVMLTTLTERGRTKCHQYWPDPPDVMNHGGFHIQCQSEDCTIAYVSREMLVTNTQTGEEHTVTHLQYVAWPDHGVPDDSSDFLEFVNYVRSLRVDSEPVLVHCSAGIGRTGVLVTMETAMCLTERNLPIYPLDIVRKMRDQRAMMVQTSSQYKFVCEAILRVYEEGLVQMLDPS

- binding [1]: no binding
- binding [2]: no binding (tested: 14 μM)
Substance: PTPN3-Bidomain (PDZ and PTP domains connected by the linker) (from UniProt P26045-1 488-913) (domain or fragment)
